Measured data: PubChem BioAssay AID1159584 (Peter MacCallum Cancer Centre, 2016)
In all, the deposit lists about 18,000 reagents; this is a part drawn at random. Not all columns of the deposit are shown. No sequences are given here. Not stated in the record: the amount of reagent, the time to read-out.

Aim: 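Knock-downs that harm CDH1-null cells more than parental MCF10A cells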 (primary screen)
System: human MCF10A breast epithelial cells, parental and CDH1-null
Reagents: siRNA against human genes
Measured: 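ATP luminescence (CellTiter-Glo) viability per line relative to mean mock wells over all plates, and the ratio of CDH1-null to parental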
Scale: CDH1-null / parental viability ratio: higher = CDH1-null cells survive relatively better than parental

target | CDH1-null / parental viability ratio
MTREX | 1.26
LRTOMT | 0.85
SELENOS | 0.92
TFPI2 | 0.96
PITX1 | 1.4
TRIM6 | 0.86
PELI1 | 1.09
SLC15A3 | 1.2
NAPEPLD | 0.82
SLC52A1 | 0.86
FFAR4 | 0.74
UPP2 | 1
TAB2 | 1.04
CD79A | 1.31
TMEM144 | 0.93
PCARE | 0.91
CDK9 | 1
RSPO3 | 0.86
SYK | 1.12
ABI3BP | 1.13
OR5K2 | 0.78
CITED2 | 1
RPL7L1 | 1.09
FOS | 0.94
EOGT | 1.07
VIT | 1.11
PGGHG | 0.81
ZNF114 | 0.92

Not a retest: 4 of the entries above.
target | CDH1-null / parental viability ratio
CD79A | 1.31
TMEM144 | 0.93
PCARE | 0.91
CDK9 | 1
